## Primary screen of a compound library

By UniProt entry, the sequences of proteins in these tests, tags left out. Residues count along the entry.
UniProt Q8IDJ8, 1-583: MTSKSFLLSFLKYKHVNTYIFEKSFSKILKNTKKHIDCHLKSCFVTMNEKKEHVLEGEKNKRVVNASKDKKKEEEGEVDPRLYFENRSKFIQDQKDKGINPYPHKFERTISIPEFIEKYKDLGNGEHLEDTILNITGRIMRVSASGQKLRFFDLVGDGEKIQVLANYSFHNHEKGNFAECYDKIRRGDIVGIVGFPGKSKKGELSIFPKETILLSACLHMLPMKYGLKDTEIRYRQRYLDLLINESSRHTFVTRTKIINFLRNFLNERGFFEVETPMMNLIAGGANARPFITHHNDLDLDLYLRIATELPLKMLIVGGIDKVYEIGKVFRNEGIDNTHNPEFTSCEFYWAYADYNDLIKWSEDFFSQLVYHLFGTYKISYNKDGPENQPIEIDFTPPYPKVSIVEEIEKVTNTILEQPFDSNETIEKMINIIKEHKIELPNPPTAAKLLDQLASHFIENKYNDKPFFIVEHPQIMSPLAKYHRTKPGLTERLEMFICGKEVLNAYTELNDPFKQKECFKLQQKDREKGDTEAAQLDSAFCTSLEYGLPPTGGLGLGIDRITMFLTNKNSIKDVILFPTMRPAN
UniProt I6X8D2, whole entry: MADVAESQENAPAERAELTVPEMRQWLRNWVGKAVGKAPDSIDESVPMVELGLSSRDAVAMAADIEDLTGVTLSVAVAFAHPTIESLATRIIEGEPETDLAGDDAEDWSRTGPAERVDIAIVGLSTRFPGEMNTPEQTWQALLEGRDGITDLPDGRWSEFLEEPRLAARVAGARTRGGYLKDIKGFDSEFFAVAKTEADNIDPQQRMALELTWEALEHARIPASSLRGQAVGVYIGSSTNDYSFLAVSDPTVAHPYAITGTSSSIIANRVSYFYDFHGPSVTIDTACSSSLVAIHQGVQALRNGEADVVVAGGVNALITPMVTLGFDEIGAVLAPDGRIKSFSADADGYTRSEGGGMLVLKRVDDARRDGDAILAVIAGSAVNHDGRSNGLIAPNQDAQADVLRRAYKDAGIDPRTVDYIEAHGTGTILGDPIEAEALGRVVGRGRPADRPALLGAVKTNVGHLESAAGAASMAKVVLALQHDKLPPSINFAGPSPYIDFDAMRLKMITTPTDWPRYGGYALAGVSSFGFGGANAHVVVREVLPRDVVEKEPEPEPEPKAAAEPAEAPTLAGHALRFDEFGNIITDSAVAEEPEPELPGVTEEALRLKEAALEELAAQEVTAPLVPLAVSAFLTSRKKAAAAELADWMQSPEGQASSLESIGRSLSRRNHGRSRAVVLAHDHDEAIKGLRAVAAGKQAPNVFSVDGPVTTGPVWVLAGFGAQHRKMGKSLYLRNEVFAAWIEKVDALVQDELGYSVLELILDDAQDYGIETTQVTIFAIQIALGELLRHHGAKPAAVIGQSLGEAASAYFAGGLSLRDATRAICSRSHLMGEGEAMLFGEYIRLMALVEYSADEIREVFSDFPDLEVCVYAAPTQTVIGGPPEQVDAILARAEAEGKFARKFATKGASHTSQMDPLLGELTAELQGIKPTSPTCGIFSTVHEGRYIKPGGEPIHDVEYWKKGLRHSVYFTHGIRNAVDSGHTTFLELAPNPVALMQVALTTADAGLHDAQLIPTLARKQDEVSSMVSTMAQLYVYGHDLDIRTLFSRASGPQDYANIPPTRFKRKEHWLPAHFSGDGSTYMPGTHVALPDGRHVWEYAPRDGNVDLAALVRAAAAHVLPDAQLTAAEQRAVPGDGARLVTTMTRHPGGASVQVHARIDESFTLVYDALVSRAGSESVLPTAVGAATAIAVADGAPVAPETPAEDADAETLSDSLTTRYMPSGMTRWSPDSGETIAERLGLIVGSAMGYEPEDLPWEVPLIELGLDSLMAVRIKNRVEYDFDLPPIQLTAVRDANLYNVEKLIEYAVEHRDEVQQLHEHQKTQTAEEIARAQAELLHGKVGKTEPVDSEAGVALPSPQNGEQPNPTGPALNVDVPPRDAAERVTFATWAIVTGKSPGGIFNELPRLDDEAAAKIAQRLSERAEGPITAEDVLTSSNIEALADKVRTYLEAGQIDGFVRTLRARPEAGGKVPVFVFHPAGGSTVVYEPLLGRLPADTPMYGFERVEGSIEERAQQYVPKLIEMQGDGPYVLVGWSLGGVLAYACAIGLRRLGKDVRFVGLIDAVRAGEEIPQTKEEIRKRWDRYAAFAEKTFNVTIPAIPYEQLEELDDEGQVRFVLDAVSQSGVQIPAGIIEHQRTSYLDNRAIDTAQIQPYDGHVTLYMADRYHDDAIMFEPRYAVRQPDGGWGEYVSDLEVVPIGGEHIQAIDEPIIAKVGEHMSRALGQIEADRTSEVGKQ
UniProt P9WPC5, whole entry: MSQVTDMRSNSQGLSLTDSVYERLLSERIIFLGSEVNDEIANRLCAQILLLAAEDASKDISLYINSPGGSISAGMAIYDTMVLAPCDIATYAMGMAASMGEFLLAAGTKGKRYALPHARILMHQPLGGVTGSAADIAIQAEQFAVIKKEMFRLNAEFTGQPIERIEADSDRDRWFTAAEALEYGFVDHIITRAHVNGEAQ
UniProt P9WPC3, whole entry partner: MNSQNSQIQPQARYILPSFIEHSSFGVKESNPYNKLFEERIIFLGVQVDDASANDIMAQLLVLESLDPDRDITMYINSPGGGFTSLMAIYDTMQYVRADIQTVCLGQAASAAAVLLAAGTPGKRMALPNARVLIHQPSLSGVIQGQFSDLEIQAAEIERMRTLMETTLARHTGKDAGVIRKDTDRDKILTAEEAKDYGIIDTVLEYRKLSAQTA

Measurements from “University of Dundee, Small-Polar-MMV Screening Library” (2021), ChEMBL document CHEMBL3988442.

PfKRS1: 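Lysine-tRNA ligase, Plasmodium falciparum 3D7 (UniProt Q8IDJ8). Enzyme assay of the cytosolic lysyl-tRNA synthetase in 384-well plates, read by luminescence. Concentration: 30 µM. Direction is inferred from only a few compounds that gave an IC50; most scored high, so higher reads as stronger inhibition. Size under these conditions: about 69,000 compounds, about 49 of them at 50% or above in at least one test.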
Pks13 thioesterase: 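Polyketide synthase Pks13, Mycobacterium tuberculosis (UniProt I6X8D2). Enzyme assay of the thioesterase domain of polyketide synthase 13; the read-out is not stated. Concentration: 30 µM. Higher reads as stronger inhibition (inferred from which compounds were picked for retests). Size under these conditions: about 67,000 compounds, about 300 of them at 50% or above in at least one test.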
ClpP1P2: 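Protease assay of ClpP1P2, read by the AMC dye that it sets free. Target: ClpP1P2, Mycobacterium tuberculosis (UniProt P9WPC5 and UniProt P9WPC3). Concentration: 50 µM. Higher reads as stronger inhibition, judged from the few compounds that gave an IC50. Most other retested compounds had strongly negative values. Of about 69,000 compounds tested this way, about 10 (0.015%) reached 50% or more in at least one test.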

Each number is a percent effect as filed.
The record does not define 0% and 100%; most values in the screen are far below 50% and negative numbers occur (in some assays of this library far below -100).
This is an unselected part of the compounds tested.
A dash means the value is not listed here; it may have been measured.

SMILES | PfKRS1 | Pks13 thioesterase | ClpP1P2
COc1cc(CNCc2ccnc(N3CCCC3)c2)cc(OC)c1 | 1.934% | -14.98% | -10.5%
Cc1ncc2c(n1)CN(CC(O)COc1ccc(C#N)cc1)CC2 (stereo not given) | 8.663% | -26.8% | -0.6948%
Cc1cnn(CCC(=O)NS(=O)(=O)N2CCCc3ccccc32)c1 | 2.218% | -10.28% | 2.069%
Cc1ccc(-c2nn3c(nc2=O)-c2ccccc2NC3C(=O)O)cc1C (stereo not given) | -1.065% | -10.49% | 16.04%
c1cnnc(N2CCC(c3nnc(Cn4ccnc4)n3C3CC3)CC2)c1 | 4.528% | -26.46% | 9.293%
CCN1CC2(CCC1=O)CCN(Cc1cc(F)ccc1Cl)CC2 | 2.781% | -30.32% | -1.003%
CCS(=O)(=O)N1C[C@@H](OCc2ccccn2)[C@@H]2OCCC[C@@H]21 | 6.845% | 9.11% | -2.334%
O=C(C[C@@H]1COC[C@H]2CN(Cc3ccc(F)cc3)C[C@@H]12)N1CCCCO1 | 4.56% | -36.27% | 1.757%
COc1cccc(C(=O)N2CCN(C(=O)CCn3ccnc3)CC2)c1 | 1.94% | -11.61% | -3.509%
NC(=O)CN1CC2(CCC1=O)CCN(Cc1ccc(F)cc1Cl)CC2 | 1.98% | -51.1% | -9.274%
O=C(Cc1cccs1)N1C[C@@H]2COC[C@]2(COCc2cccnc2)C1 | 0.576% | -14.51% | -5.476%
CC1CN(C)CCN1C(=O)c1cccn1Cc1ccncc1 (stereo not given) | -0.5922% | -6.015% | -10.51%
O=C(CNc1cc2c(cc1Cl)OCCCO2)NCc1ccc(F)cc1 | 1.04% | -29.16% | -0.5651%
Cn1cnnc1CNC(=O)C1CCCN(Cc2cccc(F)c2)C1 (stereo not given) | 3.105% | -7.589% | 12.92%
CN(C)S(=O)(=O)NC(=O)CC(c1ccccc1)C(F)(F)F (stereo not given) | 7.607% | 14.44% | 2.59%
Cn1nnc2c1CCN(Cc1ccccn1)C2COCc1ccccc1 (stereo not given) | -3.214% | -19.18% | 4.804%
CC(C(=O)Nc1nccs1)N(C)Cc1cccc(C#N)c1 (stereo not given) | 6.493% | -15.97% | 6.427%
Cn1ncc(NC(=O)c2noc3c2CCCC3)c1C(N)=O | 2.003% | -4.867% | -6.201%
CCn1ncc(CN2C[C@@H]3CCCN3C[C@H]2CCSC)c1C | 1.285% | 5.398% | -4.728%
Cc1c(C(=O)N2CCOCC2)nnn1-c1ccc2ncccc2c1 | 2.984% | 67.27% | -5.768%
Cc1nc2c(c(N3CCCOCC3)n1)CCN(C(=O)N1CCCC1)CC2 | 2.274% | -34.97% | -12.17%
CCCS(=O)(=O)NC(=O)c1ccc(Br)o1 | 4.045% | -10.21% | -3.024%
O=C(CCc1nc(-c2ccccc2)no1)N[C@H]1COC[C@@H]1N1CCCC1 | 5.144% | -49.81% | -7.419%
CCS(=O)(=O)N1C[C@@H](C(=O)NC(C)C)[C@@]2(Cc3ccccc3C(=O)N2)C1 | 3.41% | 9.587% | -17.1%
CCc1nccn1CCC(=O)N1CCN(c2ccccc2C)CC1C (stereo not given) | 6.428% | -4.135% | -9.555%
CN(C)S(=O)(=O)c1ccc(CNc2ccc(Cl)cn2)cc1 | 1.176% | -1.483% | 3.809%
Cc1cccc(CN2CCC[C@@H]3CN(C(=O)c4ccco4)C[C@@H]32)n1 | 3.417% | -0.5232% | 3.039%
Cc1cnn(CC2CCCN2C(=O)c2ccc3[nH]c(=O)[nH]c3c2)c1 (stereo not given) | -0.3082% | -11.24% | -12.11%
COc1ccccc1CCNC(=O)N1CCC(n2cncn2)CC1 | 0.1653% | -3.177% | -6.554%
CC(=O)NCCCSC1CCCN(c2ccccc2Cl)C1=O (stereo not given) | -2.881% | 5.449% | -1.282%
CCCOC1CCCN(c2nc(COC)nc3c2cnn3C)C1 (stereo not given) | -0.7322% | -9.906% | 3.257%
Cn1nc(C(=O)NCCc2ccc(OC3CCCC3)cc2)ccc1=O | -3.958% | -4.385% | 13.08%
CCCc1cc(N2CCC(Cc3cccc(C(N)=O)c3)C2)nc(C)n1 (stereo not given) | -0.4346% | 2.471% | -3.003%
CC(C)(C)OC(=O)N1CCC(NC2CC2)CC1 | 3.507% | -23.65% | -7.062%
NC(=O)NC(=O)CNc1cccc(C(=O)c2ccccc2)c1 | 8.83% | 2.575% | 8.519%
Cc1csc(CN2CC[C@@](O)(C3CCOCC3)[C@H](C)C2)n1 | 0.3413% | -9.629% | -8.565%
NC(=O)Cn1cc(NC(=O)NCC2CCN(c3ccccc3)C2)cn1 (stereo not given) | 12.18% | -14.95% | 2.392%
O=C1CC(NCc2cccc(O)c2)CN1CCc1cccc(Cl)c1 (stereo not given) | -2.627% | 0.7972% | -13.59%
CC(C)[C@@H]1CN(S(=O)(=O)Cc2ccccc2)C[C@H]1C(=O)O | 4.899% | -9.583% | 0.2179%
O=C(NS(=O)(=O)c1ccc2c(c1)CCC2)C1COCCO1 (stereo not given) | 1.964% | 17.72% | 8.377%
Cc1cccnc1C(=O)N1CCCCC1c1[nH]ncc1S(C)(=O)=O (stereo not given) | -0.01146% | -12.88% | 0.9548%
Cn1ccnc1CN1CCOC(Cn2cccn2)C1 (stereo not given) | 1.379% | -11.27% | 4.035%
Cn1cnnc1C1CCCN(C(=O)c2cc3ccccc3[nH]2)C1 (stereo not given) | -0.6096% | -4.826% | -28.17%
CN(C)CC1(O)CCN(C(=O)Cc2ccc3c(c2)CCC3)C1 (stereo not given) | -1.196% | -1.143% | -20.7%
Cc1ccc(N2CCC3(CCCN(C(=O)c4cccnc4)C3)C2)nn1 (stereo not given) | 1.781% | -14.54% | 1.234%
O=C(CNC(=O)C1(c2ccc(F)cc2F)CCC1)Nc1cccnc1 | 1.891% | -16.85% | -5.871%
CC(Cn1cccn1)NC(=O)N1CCN(Cc2cccnc2)CC1 (stereo not given) | 3.342% | -7.957% | -7.482%
Clc1ccc(CN(CCN2CCOCC2)Cc2cccnc2)c(Cl)c1 | 1.556% | 4.903% | 8.656%
Cc1ccc(C(NC(=O)CN2CCc3cncnc3C2)C2CC2)cc1 (stereo not given) | -1.939% | 0.2314% | -11.31%
CCC(CO)N(Cc1ccco1)Cc1c(C)nn(C)c1Cl (stereo not given) | 0.6805% | -9.586% | -6.978%
CN(Cc1nncn1-c1cccc(C(F)(F)F)c1)S(C)(=O)=O | 1.283% | -14.34% | -2.804%
CSCc1noc(CN2CCC3(CC2)CC(=O)N(CC(C)C)C3)n1 | -0.1636% | -16.11% | 3.206%
CNc1[nH]nc(N)c1C(=O)Nc1ccc(OC)cc1 | 6.09% | - | -2.344%
CNc1cncc(C2CCCN(S(C)(=O)=O)C2)n1 (stereo not given) | 3.537% | 35.06% | -21.5%